# Test results reported in PMC4117747, “The N-terminus of Mcm10 is important for interaction with the 9-1-1 clamp and in resistance to DNA damage” (Nucleic Acids Research, 2014).
# No constants are given. Whether binding was seen depends on the method and setting. Some results given as binding are weak or reduced against the parent protein; the word gives no strength. Tags and fused reporters may be left off the sequences shown.
# T1: Mcm10 L242A (two-hybrid fusion) (S. cerevisiae) (UniProt P32354)
# T1 sequence: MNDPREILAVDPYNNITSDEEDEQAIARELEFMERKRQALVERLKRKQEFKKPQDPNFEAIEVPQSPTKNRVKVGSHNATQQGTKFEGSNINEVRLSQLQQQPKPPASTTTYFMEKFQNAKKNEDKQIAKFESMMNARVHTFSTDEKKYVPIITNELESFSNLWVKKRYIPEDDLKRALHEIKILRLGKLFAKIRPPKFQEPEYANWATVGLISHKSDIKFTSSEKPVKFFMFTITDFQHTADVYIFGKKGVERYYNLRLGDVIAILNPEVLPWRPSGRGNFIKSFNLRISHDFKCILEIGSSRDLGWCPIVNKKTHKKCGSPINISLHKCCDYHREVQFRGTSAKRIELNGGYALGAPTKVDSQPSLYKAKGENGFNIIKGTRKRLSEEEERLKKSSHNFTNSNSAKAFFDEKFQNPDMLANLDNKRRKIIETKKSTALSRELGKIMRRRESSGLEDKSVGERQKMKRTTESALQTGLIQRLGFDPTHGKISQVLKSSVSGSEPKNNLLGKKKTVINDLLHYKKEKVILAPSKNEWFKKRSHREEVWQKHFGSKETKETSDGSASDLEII
# T2: Mcm10 Y245A (two-hybrid fusion) (S. cerevisiae) (UniProt P32354)
# T2 sequence: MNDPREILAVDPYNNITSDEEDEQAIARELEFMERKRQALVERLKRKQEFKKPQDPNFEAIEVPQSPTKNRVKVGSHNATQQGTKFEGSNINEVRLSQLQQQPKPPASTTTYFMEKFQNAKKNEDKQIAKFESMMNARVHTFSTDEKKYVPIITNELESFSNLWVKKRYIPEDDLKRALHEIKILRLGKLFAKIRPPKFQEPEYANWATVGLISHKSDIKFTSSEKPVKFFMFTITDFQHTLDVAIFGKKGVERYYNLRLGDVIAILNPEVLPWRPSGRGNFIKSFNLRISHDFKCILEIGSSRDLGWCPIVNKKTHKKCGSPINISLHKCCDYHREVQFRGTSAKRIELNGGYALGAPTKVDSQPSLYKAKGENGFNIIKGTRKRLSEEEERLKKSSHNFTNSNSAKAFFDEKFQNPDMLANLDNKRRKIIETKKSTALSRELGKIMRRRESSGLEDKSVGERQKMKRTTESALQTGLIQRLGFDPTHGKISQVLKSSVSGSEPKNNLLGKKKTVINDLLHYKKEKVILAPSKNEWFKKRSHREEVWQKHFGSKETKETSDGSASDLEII
# T3: Mcm10 L242Y (two-hybrid fusion) (S. cerevisiae) (UniProt P32354)
# T3 sequence: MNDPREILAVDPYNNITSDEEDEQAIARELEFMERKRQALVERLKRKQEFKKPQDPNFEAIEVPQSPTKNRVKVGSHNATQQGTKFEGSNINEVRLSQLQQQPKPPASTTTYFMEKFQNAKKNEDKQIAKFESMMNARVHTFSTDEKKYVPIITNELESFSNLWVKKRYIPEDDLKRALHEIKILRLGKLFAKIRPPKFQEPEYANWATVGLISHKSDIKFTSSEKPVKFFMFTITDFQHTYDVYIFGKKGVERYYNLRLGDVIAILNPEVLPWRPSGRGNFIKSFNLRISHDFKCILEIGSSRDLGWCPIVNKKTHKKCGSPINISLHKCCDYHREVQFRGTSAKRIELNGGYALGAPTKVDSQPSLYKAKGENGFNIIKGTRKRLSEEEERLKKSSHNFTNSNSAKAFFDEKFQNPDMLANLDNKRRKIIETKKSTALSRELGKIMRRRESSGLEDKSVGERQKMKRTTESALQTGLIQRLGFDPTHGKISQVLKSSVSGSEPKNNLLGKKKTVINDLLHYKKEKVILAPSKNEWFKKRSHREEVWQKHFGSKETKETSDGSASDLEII
# T4: Mcm10Δ140 (LexA fusion) (S. cerevisiae) (UniProt P32354)
# T4 sequence: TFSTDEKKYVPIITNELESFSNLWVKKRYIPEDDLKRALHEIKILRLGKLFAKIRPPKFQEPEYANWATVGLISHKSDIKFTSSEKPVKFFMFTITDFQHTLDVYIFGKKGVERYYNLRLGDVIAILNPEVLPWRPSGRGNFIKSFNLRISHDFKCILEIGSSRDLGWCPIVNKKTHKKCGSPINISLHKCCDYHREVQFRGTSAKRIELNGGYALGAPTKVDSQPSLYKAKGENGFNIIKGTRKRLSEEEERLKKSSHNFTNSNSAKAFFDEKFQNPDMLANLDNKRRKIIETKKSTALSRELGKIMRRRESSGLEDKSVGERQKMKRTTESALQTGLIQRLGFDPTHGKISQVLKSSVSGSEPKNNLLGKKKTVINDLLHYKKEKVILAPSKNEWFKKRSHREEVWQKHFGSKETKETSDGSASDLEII
# T5: Mcm10Δ120 (LexA fusion) (S. cerevisiae) (UniProt P32354)
# T5 sequence: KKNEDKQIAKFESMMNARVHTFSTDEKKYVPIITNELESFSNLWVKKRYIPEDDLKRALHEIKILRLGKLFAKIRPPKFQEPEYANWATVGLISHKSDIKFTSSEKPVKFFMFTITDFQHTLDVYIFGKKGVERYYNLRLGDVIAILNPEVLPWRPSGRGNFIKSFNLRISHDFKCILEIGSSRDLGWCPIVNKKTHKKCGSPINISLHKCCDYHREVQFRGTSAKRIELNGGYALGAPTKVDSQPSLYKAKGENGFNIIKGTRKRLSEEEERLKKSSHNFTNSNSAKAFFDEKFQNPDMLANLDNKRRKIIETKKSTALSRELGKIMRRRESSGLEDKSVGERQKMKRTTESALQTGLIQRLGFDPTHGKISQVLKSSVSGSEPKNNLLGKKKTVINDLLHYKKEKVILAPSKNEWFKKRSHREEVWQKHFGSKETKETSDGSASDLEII
# Experiments:
# Experiment in all cases: two-hybrid; yeast two-hybrid with pBTM116 (LexA) and pACT2 fusions; β-galactosidase activity in cell extracts, in triplicate from at least three clones
# [1] = molecular target: T1, Mcm10 L242A (two-hybrid fusion) (S. cerevisiae)
# [2] = molecular target: T2, Mcm10 Y245A (two-hybrid fusion) (S. cerevisiae)
# [3] = molecular target: T3, Mcm10 L242Y (two-hybrid fusion) (S. cerevisiae)
# [4] = molecular target: T4, Mcm10Δ140 (LexA fusion) (S. cerevisiae)
# [5] = molecular target: T5, Mcm10Δ120 (LexA fusion) (S. cerevisiae)
binder,measurement,setting,value
"Mec3 (pACT2 fusion, wild type) (protein, UniProt Q02574 1-474) MKLKLIVNGCEAPDDYKLLRTTINTVASLRKTAILRFNSERLTIISTPKSSLNSSNNGTILRGDTGQLWCTIPHDVFRLYTVISARELNTITMECNCDSLLSVFKRYDRVMNQGSSSNMTIKLQSMPEWNTNNGTLSGGTAGGVDTTSKPNPICALGITFEEIVHTSGPNDAIVMNGGVDEHNGLPTTVGTGNLLASNKVIMHSFKVPVKLLFRAQDTRIQEPMINYIQLMMYKLPPISGEFGSAFHGFIRRVERYSNVNHIHLMGVKKKEHGNEGDDVELKIIVNELDWHLEICWNGPLDSVIQRQEGLTDNPSQNQHIDTDGRQEEGSLPIIEADKPMSSLYTNTRDREMEENIRYDEDLLRIEDSSIADTRGNIYTADTSGDTEFNDISVMVEKAEQESSSTHEVIIRCKDWKVCSKLYAAFEEVVLAISHDESCVFHCSLDRGSLEDSEDVEKPRERGQIIYYIARSKGL",binding,[1],binds weakly
same,binding,[2],binds weakly
same,binding,[3],binds weakly
same,binding,[4],binds
same,binding,[5],binds
